One molecule from patent US20230236192A1 can be followed below.

Chains of the proteins cited; added tags and fusions are not shown. Lines headed by an entry give the natural chain unless they say otherwise; changes in a name come on top.
UniProt Q9Y5Y6: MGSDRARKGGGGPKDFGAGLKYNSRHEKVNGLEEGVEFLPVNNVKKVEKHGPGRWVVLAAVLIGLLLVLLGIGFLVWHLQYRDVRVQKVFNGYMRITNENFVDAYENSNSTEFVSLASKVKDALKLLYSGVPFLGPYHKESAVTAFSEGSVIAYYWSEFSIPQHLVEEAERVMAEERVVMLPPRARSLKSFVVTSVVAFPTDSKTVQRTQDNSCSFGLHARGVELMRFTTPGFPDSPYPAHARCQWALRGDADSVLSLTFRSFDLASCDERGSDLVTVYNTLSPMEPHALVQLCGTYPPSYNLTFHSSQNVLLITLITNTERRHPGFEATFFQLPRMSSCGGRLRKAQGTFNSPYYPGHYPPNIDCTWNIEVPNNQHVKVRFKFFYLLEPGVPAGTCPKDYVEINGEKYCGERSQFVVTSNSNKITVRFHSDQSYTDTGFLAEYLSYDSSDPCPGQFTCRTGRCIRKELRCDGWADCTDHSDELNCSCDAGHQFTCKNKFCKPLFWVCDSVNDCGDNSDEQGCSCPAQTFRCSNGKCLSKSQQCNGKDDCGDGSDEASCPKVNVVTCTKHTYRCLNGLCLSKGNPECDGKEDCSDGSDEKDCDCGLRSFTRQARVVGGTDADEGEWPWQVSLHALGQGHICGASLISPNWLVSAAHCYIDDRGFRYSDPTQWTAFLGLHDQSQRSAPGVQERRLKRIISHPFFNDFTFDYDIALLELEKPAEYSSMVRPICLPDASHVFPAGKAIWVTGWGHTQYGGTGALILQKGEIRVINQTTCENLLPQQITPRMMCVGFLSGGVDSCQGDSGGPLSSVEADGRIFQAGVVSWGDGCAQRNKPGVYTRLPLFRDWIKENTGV

In assay [1] the target is full-length zymogen (hepsin). Put plainly: sandwich ELISA screening. (In general: ELISA stands for enzyme-linked immunosorbent assay.)
A further assay addresses Matriptase (UniProt Q9Y5Y6). Put plainly: condition: assayed at 280 ng/ml; 10 ng/ml sensitivity; Hepsin sandwich ELISA, recombinant protein, 8 wells.

These are yes or no findings as the source states them, for the method shown.

B1: mAb 5B8 (antibody, V domains shown)
VH: DVQLVESGGDLVQPGESRKLSCAASGFTFSSFGMHWVRQAPEKGLEWVAYISSGSSAIYYADTVKGRFTISRDNPKNTLFLHMTSLRSEDTAIYYCAGSNWDYFDYWGQGTTLTVSS
VL: DIVMSQSPSSLAVSAGEKVTMSCKSSQSLLNSRIRKNYLAWYQQKPGQSPKLLIYWASTRESGVPDRFTGSGSGTDFTLTISSVQAEDLAVYYCKQSYNLWTFGGGTKLEIK
Turning to B1, the binding entry (in assay [1]; with Matriptase) was “no binding” each time.
